# The supplement of paper PMC8728848
# Some of the results follow.
# B1: MFG-E8 (Mus musculus), P21956 (protein)
# chain: MQVSRVLAALCGMLLCASGLFAASGDFCDSSLCLNGGTCLTGQDNDIYCLCPEGFTGLVCNETERGPCSPNPCYNDAKCLVTLDTQRGDIFTEYICQCPVGYSGIHCETETNYYNLDGEYMFTTAVPNTAVPTPAPTPDLSNNLASRCSTQLGMEGGAIADSQISASSVYMGFMGLQRWGPELARLYRTGIVNAWTASNYDSKPWIQVNLLRKMRVSGVMTQGASRAGRAEYLKTFKVAYSLDGRKFEFIQDESGGDKEFLGNLDNNSLKVNMFNPTLEAQYIKLYPVSCHRGCTLRFELLGCELHGCSEPLGLKNNTIPDSQMSASSSYKTWNLRAFGWYPHLGRLDNQGKINAWTAQSNSAKEWLQVDLGTQRQVTGIITQGARDFGHIQYVASYKVAHSDDGVQWTVYEEQGSSKVFQGNLDNNSHKKNIFEKPFMARYVRVLPVSWHNRITLRLELLGC
# Experiments:
# Test in all cases: glycan array binding signal (z-score within array); higher = stronger binding
# Details in all cases: glycan notation: IUPAC condensed, linker removed
# [1] = molecular target: Gal(b1-3)[Neu5Ac(a2-6)]GlcNAc(b1-6)Gal(b1-4)Glc
# How it was run: (§1)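 The binding signal is a Z-score computed within each array. Data were drawn from 3228 arrays in the Consortium for Functional Glycomics database, restricted to those with a known protein sequence. Scores were averaged over arrays of the same protein sequence at different concentrations or buffers, and over linkers, and negative values can be taken as non-binding.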
# [2] = molecular target: Gal(b1-3)[Neu5Ac(b2-6)]GalNAc
# How it was run: as §1
# Gal(b1-4)Gal = molecular target: Gal(b1-4)Gal
# How it was run: as §1
# [3] = molecular target: Gal(b1-4)GalNAc(a1-3)[Fuc(a1-2)]Gal(b1-4)GlcNAc
# How it was run: as §1
# [4] = molecular target: Gal(b1-4)GalNAc(b1-3)[Fuc(a1-2)]Gal(b1-4)GlcNAc
# How it was run: as §1
# Gal(b1-4)Glc = molecular target: Gal(b1-4)Glc
# How it was run: as §1
# Gal(b1-4)Glc6S = molecular target: Gal(b1-4)Glc6S
# How it was run: as §1
# Gal(b1-4)GlcNAc = molecular target: Gal(b1-4)GlcNAc
# How it was run: as §1
# [5] = molecular target: Gal(b1-4)GlcNAc(a1-6)Gal(b1-4)GlcNAc
# How it was run: as §1
# Gal(b1-4)GlcNAc(b1-2)Man = molecular target: Gal(b1-4)GlcNAc(b1-2)Man
# How it was run: as §1
# [6] = molecular target: Gal(b1-4)GlcNAc(b1-2)Man(a1-3)Man(b1-4)GlcNAc(b1-4)GlcNAc
# How it was run: as §1
# [7] = molecular target: Gal(b1-4)GlcNAc(b1-2)Man(a1-3)[Gal(b1-4)GlcNAc(b1-2)Man(a1-6)]Man(b1-4)GlcNAc(b1-4)GlcNAc
# How it was run: as §1
# [8] = molecular target: Gal(b1-4)GlcNAc(b1-2)Man(a1-3)[Gal(b1-4)GlcNAc(b1-2)Man(a1-6)]Man(b1-4)GlcNAc(b1-4)[Fuc(a1-6)]GlcNAc
# How it was run: as §1
# [9] = molecular target: Gal(b1-4)GlcNAc(b1-2)Man(a1-3)[Gal(b1-4)GlcNAc(b1-2)Man(a1-6)][Gal(b1-4)GlcNAc(b1-4)]Man(b1-4)GlcNAc(b1-4)[Fuc(a1-6)]GlcNAc
# How it was run: as §1
# [10] = molecular target: Gal(b1-4)GlcNAc(b1-2)Man(a1-3)[Gal(b1-4)GlcNAc(b1-2)Man(a1-6)][GlcNAc(b1-4)]Man(b1-4)GlcNAc(b1-4)[Fuc(a1-6)]GlcNAc
# How it was run: as §1
# [11] = molecular target: Gal(b1-4)GlcNAc(b1-2)Man(a1-3)[Gal(b1-4)GlcNAc(b1-2)][GlcNAc(b1-4)]Man(b1-4)GlcNAc(b1-4)GlcNAc
# How it was run: as §1
# [12] = molecular target: Gal(b1-4)GlcNAc(b1-2)Man(a1-3)[GlcNAc(b1-2)Man(a1-6)]Man(b1-4)GlcNAc(b1-4)GlcNAc
# How it was run: as §1
# [13] = molecular target: Gal(b1-4)GlcNAc(b1-2)Man(a1-3)[GlcNAc(b1-4)][Gal(b1-4)GlcNAc(b1-2)Man(a1-6)]Man(b1-4)GlcNAc(b1-4)GlcNAc
# How it was run: as §1
# [14] = molecular target: Gal(b1-4)GlcNAc(b1-2)Man(a1-3)[Man(a1-6)]Man(b1-4)GlcNAc(b1-4)GlcNAc
# How it was run: as §1
# [15] = molecular target: Gal(b1-4)GlcNAc(b1-2)Man(a1-6)Man(b1-4)GlcNAc(b1-4)GlcNAc
# How it was run: as §1
# [16] = molecular target: Gal(b1-4)GlcNAc(b1-2)Man(a1-6)[GlcNAc(b1-2)Man(a1-3)]Man(b1-4)GlcNAc(b1-4)GlcNAc
# How it was run: as §1
# [17] = molecular target: Gal(b1-4)GlcNAc(b1-2)Man(a1-6)[Man(a1-3)]Man(b1-4)GlcNAc(b1-4)GlcNAc
# How it was run: as §1
# [18] = molecular target: Gal(b1-4)GlcNAc(b1-2)[Gal(b1-4)GlcNAc(b1-4)]Man(a1-3)[Gal(b1-4)GlcNAc(b1-2)Man(a1-6)]Man(b1-4)GlcNAc(b1-4)GlcNAc
# How it was run: as §1
# [19] = molecular target: Gal(b1-4)GlcNAc(b1-2)[Gal(b1-4)GlcNAc(b1-4)]Man(a1-3)[Gal(b1-4)GlcNAc(b1-2)[Gal(b1-4)GlcNAc(b1-6)]Man(a1-6)]Man(b1-4)GlcNAc(b1-4)GlcNAc
# How it was run: as §1
# [20] = molecular target: Gal(b1-4)GlcNAc(b1-2)[Gal(b1-4)GlcNAc(b1-4)]Man(a1-3)[GlcNAc(b1-4)][Gal(b1-4)GlcNAc(b1-2)Man(a1-6)]Man(b1-4)GlcNAc(b1-4)GlcNAc
# How it was run: as §1
# [21] = molecular target: Gal(b1-4)GlcNAc(b1-2)[Gal(b1-4)GlcNAc(b1-4)]Man(a1-3)[GlcNAc(b1-4)][Gal(b1-4)GlcNAc(b1-2)[Gal(b1-4)GlcNAc(b1-6)]Man(a1-6)]Man(b1-4)GlcNAc(b1-4)GlcNAc
# How it was run: as §1
# [22] = molecular target: Gal(b1-4)GlcNAc(b1-2)[Gal(b1-4)GlcNAc(b1-6)]Man(a1-6)[Gal(b1-4)GlcNAc(b1-2)Man(a1-3)]Man(b1-4)GlcNAc(b1-4)GlcNAc
# How it was run: as §1
# [23] = molecular target: Gal(b1-4)GlcNAc(b1-2)[Gal(b1-4)GlcNAc(b1-6)]Man(a1-6)[Gal(b1-4)GlcNAc(b1-2)Man(a1-3)]Man(b1-4)GlcNAc(b1-4)[Fuc(a1-6)]GlcNAc
# How it was run: as §1
# [24] = molecular target: Gal(b1-4)GlcNAc(b1-2)[Gal(b1-4)GlcNAc(b1-6)]Man(a1-6)[GlcNAc(b1-4)][Gal(b1-4)GlcNAc(b1-2)Man(a1-3)]Man(b1-4)GlcNAc(b1-4)GlcNAc
# How it was run: as §1
# [25] = molecular target: Gal(b1-4)GlcNAc(b1-2)[Gal(b1-4)GlcNAc(b1-6)]Man(a1-6)[GlcNAc(b1-4)][Gal(b1-4)GlcNAc(b1-2)[Gal(b1-4)GlcNAc(b1-4)]Man(a1-3)]Man(b1-4)GlcNAc(b1-4)[Fuc(a1-6)]GlcNAc
# How it was run: as §1
# [26] = molecular target: Gal(b1-4)GlcNAc(b1-3)Gal(b1-3)GalNAc
# How it was run: as §1
# [27] = molecular target: Gal(b1-4)GlcNAc(b1-3)Gal(b1-3)GlcNAc
# How it was run: as §1
# [28] = molecular target: Gal(b1-4)GlcNAc(b1-3)Gal(b1-4)Glc
# How it was run: as §1
# [29] = molecular target: Gal(b1-4)GlcNAc(b1-3)Gal(b1-4)GlcNAc
# How it was run: as §1
# [30] = molecular target: Gal(b1-4)GlcNAc(b1-3)Gal(b1-4)GlcNAc(b1-2)Man(a1-3)[Gal(b1-4)GlcNAc(b1-3)Gal(b1-4)GlcNAc(b1-2)Man(a1-6)]Man(b1-4)GlcNAc(b1-4)GlcNAc
# How it was run: as §1
# [31] = molecular target: Gal(b1-4)GlcNAc(b1-3)Gal(b1-4)GlcNAc(b1-2)Man(a1-3)[Gal(b1-4)GlcNAc(b1-3)Gal(b1-4)GlcNAc(b1-2)Man(a1-6)]Man(b1-4)GlcNAc(b1-4)[Fuc(a1-6)]GlcNAc
# How it was run: as §1
# [32] = molecular target: Gal(b1-4)GlcNAc(b1-3)Gal(b1-4)GlcNAc(b1-2)[Gal(b1-4)GlcNAc(b1-3)Gal(b1-4)GlcNAc(b1-6)]Man(a1-6)[Gal(b1-4)GlcNAc(b1-3)Gal(b1-4)GlcNAc(b1-2)Man(a1-3)]Man(b1-4)GlcNAc(b1-4)GlcNAc
# How it was run: as §1
# [33] = molecular target: Gal(b1-4)GlcNAc(b1-3)Gal(b1-4)GlcNAc(b1-2)[Gal(b1-4)GlcNAc(b1-3)Gal(b1-4)GlcNAc(b1-6)]Man(a1-6)[Gal(b1-4)GlcNAc(b1-3)Gal(b1-4)GlcNAc(b1-2)Man(a1-3)]Man(b1-4)GlcNAc(b1-4)[Fuc(a1-6)]GlcNAc
# How it was run: as §1
binder,measurement,setting,value
B1,glycan array binding signal (z-score),[1],0.143
same,glycan array binding signal (z-score),[2],0.16
same,glycan array binding signal (z-score),Gal(b1-4)Gal,-0.402
same,glycan array binding signal (z-score),[3],0.07
same,glycan array binding signal (z-score),[4],0.509
same,glycan array binding signal (z-score),Gal(b1-4)Glc,-0.798
same,glycan array binding signal (z-score),Gal(b1-4)Glc6S,0.026
same,glycan array binding signal (z-score),Gal(b1-4)GlcNAc,-0.495
same,glycan array binding signal (z-score),[5],-0.24
same,glycan array binding signal (z-score),Gal(b1-4)GlcNAc(b1-2)Man,-0.513
same,glycan array binding signal (z-score),[6],-0.078
same,glycan array binding signal (z-score),[7],0.193
same,glycan array binding signal (z-score),[8],0.021
same,glycan array binding signal (z-score),[9],0.343
same,glycan array binding signal (z-score),[10],-0.591
same,glycan array binding signal (z-score),[11],0.278
same,glycan array binding signal (z-score),[12],0.763
same,glycan array binding signal (z-score),[13],-0.341
same,glycan array binding signal (z-score),[14],-0.504
same,glycan array binding signal (z-score),[15],-0.372
same,glycan array binding signal (z-score),[16],-0.429
same,glycan array binding signal (z-score),[17],-0.64
same,glycan array binding signal (z-score),[18],-0.348
same,glycan array binding signal (z-score),[19],-0.913
same,glycan array binding signal (z-score),[20],0.139
same,glycan array binding signal (z-score),[21],-0.423
same,glycan array binding signal (z-score),[22],1.14
same,glycan array binding signal (z-score),[23],-0.69
same,glycan array binding signal (z-score),[24],0.293
same,glycan array binding signal (z-score),[25],-0.238
same,glycan array binding signal (z-score),[26],-0.19
same,glycan array binding signal (z-score),[27],-0.819
same,glycan array binding signal (z-score),[28],-0.286
same,glycan array binding signal (z-score),[29],0.082
same,glycan array binding signal (z-score),[30],2.48
same,glycan array binding signal (z-score),[31],1.25
same,glycan array binding signal (z-score),[32],-0.361
same,glycan array binding signal (z-score),[33],0.176

# An excerpt of these results, with tabs.
binder	measurement	setting	value
B1	glycan array binding signal (z-score)	Gal(b1-4)Glc6S	0.026
same	glycan array binding signal (z-score)	Gal(b1-4)GlcNAc	-0.495
same	glycan array binding signal (z-score)	[5]	-0.24
same	glycan array binding signal (z-score)	Gal(b1-4)GlcNAc(b1-2)Man	-0.513
same	glycan array binding signal (z-score)	[6]	-0.078
same	glycan array binding signal (z-score)	[7]	0.193
same	glycan array binding signal (z-score)	[8]	0.021
same	glycan array binding signal (z-score)	[9]	0.343
same	glycan array binding signal (z-score)	[10]	-0.591
same	glycan array binding signal (z-score)	[11]	0.278
